Results on four molecules are retold here after PMC3883301, “FLC-mediated flowering repression is positively regulated by sumoylation” (Journal of Experimental Botany, 2013).

Substitutions are numbered along the chain they refer to. In names and notes the source's numbering stands. No constants are given. Whether binding was seen depends on the method and setting. For some assays here: In cells and extracts the contact can be indirect. Some results given as binding are weak or reduced against the parent protein; the word gives no strength. For some assays here: Sequences can lack the tags named with a protein.

Assay [1] has as its target T1, nEYFP–SIZ1 (Arabidopsis thaliana) (UniProt Q680Q4).
T1 sequence: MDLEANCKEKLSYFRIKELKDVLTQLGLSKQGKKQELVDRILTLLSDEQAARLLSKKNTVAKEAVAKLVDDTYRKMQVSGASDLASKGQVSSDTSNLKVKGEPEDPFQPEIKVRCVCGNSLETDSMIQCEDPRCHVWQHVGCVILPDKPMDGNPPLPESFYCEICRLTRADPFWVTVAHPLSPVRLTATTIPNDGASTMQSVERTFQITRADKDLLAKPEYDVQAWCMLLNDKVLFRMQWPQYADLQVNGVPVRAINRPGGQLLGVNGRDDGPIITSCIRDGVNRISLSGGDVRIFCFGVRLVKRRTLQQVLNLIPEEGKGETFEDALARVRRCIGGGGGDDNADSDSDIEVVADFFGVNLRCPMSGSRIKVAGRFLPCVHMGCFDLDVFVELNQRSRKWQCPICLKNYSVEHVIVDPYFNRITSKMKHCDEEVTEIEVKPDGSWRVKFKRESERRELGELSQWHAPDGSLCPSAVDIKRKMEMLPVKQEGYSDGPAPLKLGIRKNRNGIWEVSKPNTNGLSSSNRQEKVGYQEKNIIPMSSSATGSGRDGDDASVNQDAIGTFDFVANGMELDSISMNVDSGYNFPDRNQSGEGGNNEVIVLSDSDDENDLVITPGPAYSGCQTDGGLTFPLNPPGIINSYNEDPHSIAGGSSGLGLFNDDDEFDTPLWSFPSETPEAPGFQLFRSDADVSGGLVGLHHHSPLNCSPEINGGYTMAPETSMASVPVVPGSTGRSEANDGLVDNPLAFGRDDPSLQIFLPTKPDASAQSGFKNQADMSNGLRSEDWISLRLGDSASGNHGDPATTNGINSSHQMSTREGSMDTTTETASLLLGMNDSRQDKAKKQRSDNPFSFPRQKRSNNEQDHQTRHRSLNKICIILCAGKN
The experiment in a line: split reporter; BiFC; nEYFP–SIZ1 and cEYFP–FLC constructs mixed 1:1 and co-bombarded into onion epidermal cells, 25 °C in the dark for 16 h, confocal microscopy.

Assay [2] deals with T2, MBP–AtSIZ1, full length (Arabidopsis thaliana) (UniProt Q680Q4).
T2 sequence: T1 sequence
The experiment in a line: pull-down; 2 μg MBP–AtSIZ1 bait and 2 μg His6-FLC or His6-mFLC prey in 1 ml binding buffer (50 mM TRIS-HCl pH 7.5, 100 mM NaCl, 1% Triton X-100, 0.2% glycerol, 0.5 mM β-mercaptoethanol); 25 °C 2 h; amylose resin; anti-His blot; both purified.

Assay [3] concerns the target T3, GST–AtSIZ1 (GS), full length (Arabidopsis thaliana) (UniProt Q680Q4).
T3 sequence: T1 sequence
The experiment in a line: pull-down; 2 μg GST–AtSIZ1 (full length or deletion mutant) or GST bait and 2 μg His6-FLC prey in 1 ml 50 mM TRIS-HCl pH 7.5, 100 mM NaCl, 1% Triton X-100, 0.2% glycerol, 0.5 mM β-mercaptoethanol; 25 °C 2 h; glutathione resin; anti-His blot; both purified.

Assay [4] concerns the target T4, BD-IAA4 (INDOLEACETIC ACID 4) (UniProt P33077).
T4 sequence: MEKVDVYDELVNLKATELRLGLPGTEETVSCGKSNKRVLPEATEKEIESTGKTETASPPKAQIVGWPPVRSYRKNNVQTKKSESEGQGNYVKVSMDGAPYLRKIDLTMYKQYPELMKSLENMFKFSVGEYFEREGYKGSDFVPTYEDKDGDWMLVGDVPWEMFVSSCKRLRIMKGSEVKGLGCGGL
The assay can be described thus: two-hybrid; GAL4-based system (Clontech), AD-AtSIZ1 (pGAD424) and BD-IAA4 (pGBT8) in yeast AH109; growth on –Leu/–Trp/–His.

For the molecule cEYFP–FLC (from UniProt Q9S7Q7 1-196), the binding result in assay [1] is reported as “binds”.

B1: His6-FLC (flowering locus C, full length) (natural protein, Arabidopsis thaliana, UniProt Q9S7Q7 1-196, looked up)
chain: MGRKKLEIKRIENKSSRQVTFSKRRNGLIEKARQLSVLCDASVALLVVSASGKLYSFSSGDNLVKILDRYGKQHADDLKALDHQSKALNYGSHYELLELVDSKLVGSNVKNVSIDALVQLEEHLETALSVTRAKKTELMLKLVENLKEKEKMLKEENQVLASQMENNHHVGAEAEMEMSPAGQISDNLPVTLPLLN
notes: Flowering locus C (FLC), MADS-box transcription factor, Arabidopsis; full-length cDNA in pET28a; The printed name puts His6 before FLC; also called Arabidopsis FLC; source: E. coli BL21/DE3 (pLysS), purified (Ni2+-NTA resin)
As to B1, the binding result in assay [2] and in assay [3] was “binds” each time.

B2: His6-mFLC (FLC K154R) (natural protein, Arabidopsis thaliana, UniProt Q9S7Q7 1-196, looked up)
chain: B1 chain with K154R
notes: Flowering locus C (FLC), Arabidopsis, full length with the sumoylation site mutation K154R; The construct section describes His6-FLC(K154R)-Myc only; also called mutant FLC; source: E. coli BL21, purified (Ni2+-NTA resin)
Turning to B2, in assay [2], the binding result was “binds”.

B3: AD-AtSIZ1 (protein, UniProt Q680Q4 1-884)
chain: T1 sequence
For the molecule B3, the binding entry in assay [4] was “binds”.
